In the assay the target is Serotonin (Non-Selective). In words: Serotonin (Non-Selective) Binding Assay. The following applies: reference compounds; Rat cortical membranes; [3H]Lysergic acid diethylamide.

The term Ki denotes the equilibrium dissociation constant of an inhibitor or competing ligand from its target. A lower Ki goes with higher affinity. `O=C(CCCN1CCC2(CC1)C(=O)NCN2c1ccccc1)c1ccc(F)cc1` [Spiperone, reference compound] displayed a Ki of 18 nM.

Values taken from patent US5889029A, “Use of cotinine in treating psychiatric disorders” (priority 1997, dated 1999).
